PubChem BioAssay AID504791, Drosophila RNAi Screening Center | 2011

Purpose: 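Genes of the fly required for silencing by miRNA, siRNA or endo-siRNA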 (primary screen)
Cells: Drosophila S2-derived reporter cells
Reagents: long dsRNA against Drosophila genes, about 150-250 ng dsRNA per well (siRNA assay); about 80-120 ng (miRNA assay)
Timing: about 5 days (siRNA assay); about 4 days (miRNA assay)
Conditions: copper sulfate induction of reporters: 25 µM (siRNA assay); 200 mM stated (miRNA assay), 1-2 days before reading
Measured: 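Per-well ratio of Renilla over firefly light, expressed relative to that plate's average ratio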
Hit rule: 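a well was a first-pass pick when its plate-scaled ratio rose above 1.5 (siRNA assay) or 1.6 (miRNA assay), or dropped below 0.6; a gene counted only if two separate dsRNAs agreed on retest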
In all, the deposit lists about 23,000 reagents; below is a random part of those with a known target gene and a result. In the full data, 199 (0.86%) are marked active. 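Plate-scaled ratios behind the calls are not deposited; printed light signals are raw; many rows marked increased or decreased are still called inactive.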 Reagent sequences are not shown. Not stated in the record: the direction of the score.

CG11436 [DRSC17783]
- stable assay Renilla, run 1 (luminescence): 9049
- stable assay firefly, run 1 (luminescence): 5.26e5
- outcome: inactive

Cht4 (Chitinase 4) [DRSC04603]
- stable assay Renilla, run 1 (luminescence): 7766
- stable assay firefly, run 1 (luminescence): 5.07e5
- outcome: inactive

CG1532 [DRSC20516]
- stable assay Renilla, run 1 (luminescence): 8477
- stable assay firefly, run 1 (luminescence): 4.07e5
- outcome: inactive

CG17593 [DRSC00504]
- stable assay Renilla, run 1 (luminescence): 6396
- stable assay firefly, run 1 (luminescence): 5.45e5
- outcome: inactive

shu (shutdown) [DRSC04484]
- stable assay Renilla, run 1 (luminescence): 19379
- stable assay firefly, run 1 (luminescence): 1.28e6
- outcome: inactive

dre4 [DRSC08714]
- stable assay Renilla, run 1 (luminescence): 5860
- stable assay firefly, run 1 (luminescence): 4.57e5
- outcome: inactive

pie (pineapple eye) [DRSC03590]
- stable assay Renilla, run 1 (luminescence): 17988
- stable assay firefly, run 1 (luminescence): 8.37e5
- outcome: inactive

PolrMT (RNA polymerase mitochondrial) [DRSC00660]
- stable assay Renilla, run 1 (luminescence): 2.62e5
- stable assay firefly, run 1 (luminescence): 1.23e5
- outcome: inactive

Synd (Syndapin) [DRSC15116]
- stable assay Renilla, run 1 (luminescence): 8545
- stable assay firefly, run 1 (luminescence): 4.06e5
- outcome: inactive

CG13982 [DRSC02314]
- stable assay Renilla, run 1 (luminescence): 7058
- stable assay firefly, run 1 (luminescence): 4.76e5
- outcome: inactive

Spf45 [DRSC03826]
- stable assay Renilla, run 1 (luminescence): 7450
- stable assay firefly, run 1 (luminescence): 3.47e5
- outcome: inactive

mdlc (midlife crisis) [DRSC15690]
- stable assay Renilla, run 1 (luminescence): 10317
- stable assay firefly, run 1 (luminescence): 4.29e5
- outcome: inactive

CG9269 [DRSC16465]
- stable assay Renilla, run 1 (luminescence): 6392
- stable assay firefly, run 1 (luminescence): 4.28e5
- outcome: inactive

CAH5 (Carbonic anhydrase 5) [DRSC15372]
- stable assay Renilla, run 1 (luminescence): 7231
- stable assay firefly, run 1 (luminescence): 4.27e5
- outcome: inactive

CG34338 [DRSC17535]
- stable assay Renilla, run 1 (luminescence): 6051
- stable assay firefly, run 1 (luminescence): 3.78e5
- outcome: inactive

CG5122 [DRSC02816]
- stable assay Renilla, run 1 (luminescence): 7365
- stable assay firefly, run 1 (luminescence): 2.94e5
- outcome: inactive

Rab27 [DRSC18567]
- stable assay Renilla, run 1 (luminescence): 7552
- stable assay firefly, run 1 (luminescence): 4.40e5
- outcome: inactive

CG13220 [DRSC06342]
- stable assay Renilla, run 1 (luminescence): 5436
- stable assay firefly, run 1 (luminescence): 3.32e5
- outcome: inactive

LManII (Lysosomal alpha-mannosidase II) [DRSC01986]
- stable assay Renilla, run 1 (luminescence): 9311
- stable assay firefly, run 1 (luminescence): 1.08e6
- outcome: inactive

Part of the list above in another layout:
{"target": "CG11436", "dsRNA": "DRSC17783", "stable assay Renilla, run 1 (luminescence)": 9049, "stable assay firefly, run 1 (luminescence)": 5.26e5, "outcome": "inactive"}
{"target": "Cht4 (Chitinase 4)", "dsRNA": "DRSC04603", "stable assay Renilla, run 1 (luminescence)": 7766, "stable assay firefly, run 1 (luminescence)": 5.07e5, "outcome": "inactive"}
{"target": "CG1532", "dsRNA": "DRSC20516", "stable assay Renilla, run 1 (luminescence)": 8477, "stable assay firefly, run 1 (luminescence)": 4.07e5, "outcome": "inactive"}
